{"source": "PubChem BioAssay AID1159597 (NIAID, 2016)", "purpose": "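Role of canonical TLR signalling genes in the human macrophage LPS response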", "cells": "human THP-1 B5 reporter clone (monocytic leukaemia line), PMA-differentiated to macrophage-like cells", "reagents": "single siRNA against human genes", "timing": "LPS for 4 h before read-out; assayed 48 to 72 h after siRNA transfection", "treatment": "LPS (Salmonella minnesota R595) for 4 h; concentration not given", "detection": "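TNF promoter dual luciferase ratio after 4 h LPS, given as a per-plate robust z-score, mean of replicates per siRNA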", "scale": "TNF reporter z-score: higher = stronger TNF promoter activity after LPS", "active means": "In these data the active calls have TNF reporter z-score, replicate mean at about -1.5 or lower, or at about 1.53 or higher", "meaning of the calls": "active = clear shift in reporter, either direction; inactive = little shift in reporter", "note": "Shown is a random part of 756 reagents tested. Over the whole deposit, 140 (19%) are marked active. 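Calls mark clear shifts in either direction, lowered or raised; calls are per siRNA, gene-level medians over six siRNAs not deposited.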 The numbers tell different reagents against one gene apart. The record does not give: the amount of reagent."}
{"gene knocked down": "TICAM1 (GeneID 148022)", "siRNA no.": 1, "TNF reporter z-score, replicate mean": -1.73, "outcome": "active"}
{"gene knocked down": "TICAM1 (GeneID 148022)", "siRNA no.": 2, "TNF reporter z-score, replicate mean": -1.82, "outcome": "active"}
{"gene knocked down": "TICAM1 (GeneID 148022)", "siRNA no.": 3, "TNF reporter z-score, replicate mean": -1.98, "outcome": "active"}
{"gene knocked down": "TICAM1 (GeneID 148022)", "siRNA no.": 4, "TNF reporter z-score, replicate mean": -2.71, "outcome": "active"}
{"gene knocked down": "TICAM1 (GeneID 148022)", "siRNA no.": 5, "TNF reporter z-score, replicate mean": -1.43, "outcome": "inactive"}
{"gene knocked down": "TICAM1 (GeneID 148022)", "siRNA no.": 6, "TNF reporter z-score, replicate mean": -1.01, "outcome": "inactive"}
{"gene knocked down": "DUSP1 (GeneID 1843)", "siRNA no.": 1, "TNF reporter z-score, replicate mean": 0.422, "outcome": "inactive"}
{"gene knocked down": "DUSP1 (GeneID 1843)", "siRNA no.": 2, "TNF reporter z-score, replicate mean": 0.682, "outcome": "inactive"}
{"gene knocked down": "DUSP1 (GeneID 1843)", "siRNA no.": 3, "TNF reporter z-score, replicate mean": 1.53, "outcome": "active"}
{"gene knocked down": "DUSP1 (GeneID 1843)", "siRNA no.": 4, "TNF reporter z-score, replicate mean": 0.816, "outcome": "inactive"}
{"gene knocked down": "DUSP1 (GeneID 1843)", "siRNA no.": 5, "TNF reporter z-score, replicate mean": 0.207, "outcome": "inactive"}
{"gene knocked down": "DUSP1 (GeneID 1843)", "siRNA no.": 6, "TNF reporter z-score, replicate mean": 0.466, "outcome": "inactive"}
{"gene knocked down": "IFNAR2 (GeneID 3455)", "siRNA no.": 1, "TNF reporter z-score, replicate mean": -2.74, "outcome": "active"}
{"gene knocked down": "IFNAR2 (GeneID 3455)", "siRNA no.": 2, "TNF reporter z-score, replicate mean": -1.29, "outcome": "inactive"}
{"gene knocked down": "IFNAR2 (GeneID 3455)", "siRNA no.": 3, "TNF reporter z-score, replicate mean": -1.67, "outcome": "active"}
{"gene knocked down": "IFNAR2 (GeneID 3455)", "siRNA no.": 4, "TNF reporter z-score, replicate mean": -1.07, "outcome": "inactive"}
{"gene knocked down": "IFNAR2 (GeneID 3455)", "siRNA no.": 5, "TNF reporter z-score, replicate mean": -0.501, "outcome": "inactive"}
{"gene knocked down": "IFNAR2 (GeneID 3455)", "siRNA no.": 6, "TNF reporter z-score, replicate mean": -0.794, "outcome": "inactive"}
{"gene knocked down": "CXCL9 (GeneID 4283)", "siRNA no.": 1, "TNF reporter z-score, replicate mean": -1.95, "outcome": "active"}
{"gene knocked down": "CXCL9 (GeneID 4283)", "siRNA no.": 2, "TNF reporter z-score, replicate mean": -0.778, "outcome": "inactive"}
{"gene knocked down": "CXCL9 (GeneID 4283)", "siRNA no.": 3, "TNF reporter z-score, replicate mean": 0.562, "outcome": "inactive"}
{"gene knocked down": "CXCL9 (GeneID 4283)", "siRNA no.": 4, "TNF reporter z-score, replicate mean": -2.63, "outcome": "active"}
{"gene knocked down": "CXCL9 (GeneID 4283)", "siRNA no.": 5, "TNF reporter z-score, replicate mean": -0.385, "outcome": "inactive"}
{"gene knocked down": "CXCL9 (GeneID 4283)", "siRNA no.": 6, "TNF reporter z-score, replicate mean": 0.616, "outcome": "inactive"}
{"gene knocked down": "IFNAR1 (GeneID 3454)", "siRNA no.": 1, "TNF reporter z-score, replicate mean": -1.91, "outcome": "active"}
{"gene knocked down": "IFNAR1 (GeneID 3454)", "siRNA no.": 2, "TNF reporter z-score, replicate mean": -1.75, "outcome": "active"}
{"gene knocked down": "IFNAR1 (GeneID 3454)", "siRNA no.": 3, "TNF reporter z-score, replicate mean": 0.0474, "outcome": "inactive"}
{"gene knocked down": "IFNAR1 (GeneID 3454)", "siRNA no.": 4, "TNF reporter z-score, replicate mean": -2.13, "outcome": "active"}
{"gene knocked down": "IFNAR1 (GeneID 3454)", "siRNA no.": 5, "TNF reporter z-score, replicate mean": -0.353, "outcome": "inactive"}
{"gene knocked down": "IFNAR1 (GeneID 3454)", "siRNA no.": 6, "TNF reporter z-score, replicate mean": -0.34, "outcome": "inactive"}
{"gene knocked down": "RELB (GeneID 5971)", "siRNA no.": 1, "TNF reporter z-score, replicate mean": -1.1, "outcome": "inactive"}
{"gene knocked down": "RELB (GeneID 5971)", "siRNA no.": 2, "TNF reporter z-score, replicate mean": 0.144, "outcome": "inactive"}
{"gene knocked down": "RELB (GeneID 5971)", "siRNA no.": 3, "TNF reporter z-score, replicate mean": 0.215, "outcome": "inactive"}
{"gene knocked down": "RELB (GeneID 5971)", "siRNA no.": 4, "TNF reporter z-score, replicate mean": -1.18, "outcome": "inactive"}
{"gene knocked down": "RELB (GeneID 5971)", "siRNA no.": 5, "TNF reporter z-score, replicate mean": -0.374, "outcome": "inactive"}
{"gene knocked down": "RELB (GeneID 5971)", "siRNA no.": 6, "TNF reporter z-score, replicate mean": -0.568, "outcome": "inactive"}

Looked up above.
For “outcome”, TICAM1 (GeneID 148022) #4 reads active
RELB (GeneID 5971) #2, TNF reporter z-score, replicate mean: 0.144
CXCL9 (GeneID 4283) #5, TNF reporter z-score, replicate mean → -0.385
